No constants are given. Whether binding was seen depends on the method and setting. In cells and extracts the contact can be indirect. Binding calls can cover weak binding; strength is not graded here.

One assay addresses Flag-Tet1. Description: co-IP; lysates of HEK293 cells transfected with vector or Flag-Tet for 48 h; anti-Flag magnetic beads, 6-12 h at 4°C; western blot. In general terms: Immunoblotting shows a protein as a band on a membrane.
A further assay deals with Flag-Tet2. The description is as above.

B1: Non-POU domain-containing octamer-binding (NONO) protein, in HEK293 cells (protein, UniProt Q15233 1-471)
chain: MQSNKTFNLEKQNHTPRKHHQHHHQQQHHQQQQQQPPPPPIPANGQQASSQNEGLTIDLKNFRKPGEKTFTQRSRLFVGNLPPDITEEEMRKLFEKYGKAGEVFIHKDKGFGFIRLETRTLAEIAKVELDNMPLRGKQLRVRFACHSASLTVRNLPQYVSNELLEEAFSVFGQVERAVVIVDDRGRPSGKGIVEFSGKPAARKALDRCSEGSFLLTTFPRPVTVEPMDQLDDEEGLPEKLVIKNQQFHKEREQPPRFAQPGSFEYEYAMRWKALIEMEKQQQDQVDRNIKEAREKLEMEMEAARHEHQVMLMRQDLMRRQEELRRMEELHNQEVQKRKQLELRQEEERRRREEEMRRQQEEMMRRQQEGFKGTFPDAREQEIRMGQMAMGGAMGINNRGAMPPAPVPAGTPAPPGPATMMPDGTLGLTPPTTERFGQAATMEGIGAIGGTPPAFNRAAPGAEFAPNKRRRY
Regarding B1, the binding entry with Flag-Tet1 and in the assay with Flag-Tet2 was “binds” throughout.

These data come from PMC10289295.
